PubChem BioAssay AID504804, Drosophila RNAi Screening Center | 2011

Purpose: 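dsRNAs that improve Kc cell survival under doxorubicin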 (primary screen)
Cells: Drosophila Kc cells
Reagent: long dsRNA against Drosophila genes, 0.5 µg dsRNA per well
Duration: 96 h (48 h knock-down, then 48 h drug)
Conditions: doxorubicin 5 µg/ml for 48 h, added 48 h after dsRNA
Read-out: 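Luminescent ATP counts per replicate, not normalised, reflecting viable cells after 48 h dsRNA knock-down followed by 48 h of 5 µg/ml doxorubicin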
Scale: raw ATP luminescence: higher = more viable cells, protection from doxorubicin
Hit rule: 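z-score of 2 or more over plate mean in both duplicates, retained only when retests and separate dsRNAs confirm the protection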
The deposit covers about 19,000 reagents; below is an unselected part of those that have a named target and a result. Over the whole deposit, 47 (0.25%) were called active. 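Signals are raw, not normalised; exact z-scores behind calls not deposited; actives needed confirmation, so some wells reaching 2 SD are inactive.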 The numbers tell different reagents against one gene apart.

With CG9101, how do the results read?
raw ATP luminescence, replicate 1: 1.86e5; raw ATP luminescence, replicate 2: 2.13e5; outcome: inactive

What is on record for eas?
raw ATP luminescence, replicate 1: 2.55e5; raw ATP luminescence, replicate 2: 3.01e5; outcome: inactive

With Rab3-GAP, what does the deposit list?
raw ATP luminescence, replicate 1: 1.09e5; raw ATP luminescence, replicate 2: 85220; outcome: inactive

How did the screen score Arms #1?
raw ATP luminescence, replicate 1: 74703; raw ATP luminescence, replicate 2: 62567; outcome: inactive

Which result is listed for Arms #2?
raw ATP luminescence, replicate 1: 71947; raw ATP luminescence, replicate 2: 61067; outcome: inactive

What is on record for Arms #3?
raw ATP luminescence, replicate 1: 62397; raw ATP luminescence, replicate 2: 53517; outcome: inactive

For Arms #4, what was measured?
raw ATP luminescence, replicate 1: 51767; raw ATP luminescence, replicate 2: 54190; outcome: inactive

Which result is listed for Argp?
raw ATP luminescence, replicate 1: 66590; raw ATP luminescence, replicate 2: 89620; outcome: inactive

For PH4alphaEFB, what was measured?
raw ATP luminescence, replicate 1: 63860; raw ATP luminescence, replicate 2: 54400; outcome: inactive

What is on record for Pex11c?
raw ATP luminescence, replicate 1: 80150; raw ATP luminescence, replicate 2: 67820; outcome: inactive

With CG6873, what was measured?
raw ATP luminescence, replicate 1: 1.91e5; raw ATP luminescence, replicate 2: 1.98e5; outcome: inactive

How did the screen score CG10621?
raw ATP luminescence, replicate 1: 71967; raw ATP luminescence, replicate 2: 68317; outcome: inactive

What did the screen give for aus #1?
raw ATP luminescence, replicate 1: 1.52e5; raw ATP luminescence, replicate 2: 1.81e5; outcome: inactive

What is on record for aus #2?
raw ATP luminescence, replicate 1: 1.43e5; raw ATP luminescence, replicate 2: 1.45e5; outcome: inactive

With aus #3, what does the deposit list?
raw ATP luminescence, replicate 1: 45033; raw ATP luminescence, replicate 2: 45353; outcome: inactive

For sba #1, what was measured?
raw ATP luminescence, replicate 1: 33243; raw ATP luminescence, replicate 2: 40450; outcome: inactive

With sba #2, what does the deposit list?
raw ATP luminescence, replicate 1: 57570; raw ATP luminescence, replicate 2: 52210; outcome: inactive

For timeout #1, what was measured?
raw ATP luminescence, replicate 1: 2.07e5; raw ATP luminescence, replicate 2: 1.76e5; outcome: inactive

What is on record for timeout #2?
raw ATP luminescence, replicate 1: 77650; raw ATP luminescence, replicate 2: 50270; outcome: inactive

With timeout #3, what does the deposit list?
raw ATP luminescence, replicate 1: 77600; raw ATP luminescence, replicate 2: 57340; outcome: inactive

With timeout #4, what was measured?
raw ATP luminescence, replicate 1: 78110; raw ATP luminescence, replicate 2: 62720; outcome: inactive

With timeout #5, how do the results read?
raw ATP luminescence, replicate 1: 92530; raw ATP luminescence, replicate 2: 68170; outcome: inactive

With Tti1, what does the deposit list?
raw ATP luminescence, replicate 1: 57190; raw ATP luminescence, replicate 2: 60410; outcome: inactive

What is on record for l(3)76BDm?
raw ATP luminescence, replicate 1: 22600; raw ATP luminescence, replicate 2: 23707; outcome: inactive

3 entries already listed, ordered by “raw ATP luminescence, replicate 2”, lowest first:
Tti1 → raw ATP luminescence, replicate 1: 57190; raw ATP luminescence, replicate 2: 60410; outcome: inactive
timeout #4 → raw ATP luminescence, replicate 1: 78110; raw ATP luminescence, replicate 2: 62720; outcome: inactive
timeout #5 → raw ATP luminescence, replicate 1: 92530; raw ATP luminescence, replicate 2: 68170; outcome: inactive

The results go on:
Which result is listed for CG31115?
raw ATP luminescence, replicate 1: 2.33e5; raw ATP luminescence, replicate 2: 2.33e5; outcome: inactive

How did the screen score Ran-like?
raw ATP luminescence, replicate 1: 26697; raw ATP luminescence, replicate 2: 23900; outcome: inactive

How did the screen score CG10428?
raw ATP luminescence, replicate 1: 1.09e5; raw ATP luminescence, replicate 2: 87097; outcome: inactive

With eEF1gamma, what was measured?
raw ATP luminescence, replicate 1: 24140; raw ATP luminescence, replicate 2: 24800; outcome: inactive

What did the screen give for CG32037?
raw ATP luminescence, replicate 1: 98927; raw ATP luminescence, replicate 2: 93607; outcome: inactive

What did the screen give for Tom7 #1?
raw ATP luminescence, replicate 1: 97443; raw ATP luminescence, replicate 2: 90980; outcome: inactive

What is on record for Tom7 #2?
raw ATP luminescence, replicate 1: 49717; raw ATP luminescence, replicate 2: 77630; outcome: inactive

How did the screen score alt?
raw ATP luminescence, replicate 1: 39787; raw ATP luminescence, replicate 2: 52980; outcome: inactive

For Mettl3, what was measured?
raw ATP luminescence, replicate 1: 72650; raw ATP luminescence, replicate 2: 71200; outcome: inactive

What did the screen give for Prp16?
raw ATP luminescence, replicate 1: 4.03e5; raw ATP luminescence, replicate 2: 3.43e5; outcome: inactive

What is on record for Tmep?
raw ATP luminescence, replicate 1: 49303; raw ATP luminescence, replicate 2: 64597; outcome: inactive

What did the screen give for Iml1?
raw ATP luminescence, replicate 1: 49547; raw ATP luminescence, replicate 2: 52733; outcome: inactive
